From publication PMC1173138 come the findings set out here.

Sequences of proteins named here, by UniProt entry; tags and fusion partners are left off.
UniProt Q03135: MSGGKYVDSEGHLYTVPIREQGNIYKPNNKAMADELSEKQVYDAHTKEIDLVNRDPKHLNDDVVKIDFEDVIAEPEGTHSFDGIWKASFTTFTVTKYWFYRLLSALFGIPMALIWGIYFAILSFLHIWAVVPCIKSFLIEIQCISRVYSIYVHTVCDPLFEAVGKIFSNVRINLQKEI
UniProt P08134: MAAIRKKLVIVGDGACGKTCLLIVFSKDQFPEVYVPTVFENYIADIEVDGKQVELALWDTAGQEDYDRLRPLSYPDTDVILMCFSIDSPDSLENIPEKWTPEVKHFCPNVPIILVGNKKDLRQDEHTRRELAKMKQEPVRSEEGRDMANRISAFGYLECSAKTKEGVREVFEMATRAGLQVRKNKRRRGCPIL

No constants are given. Whether binding was seen depends on the method and setting. Binding seen in cells or lysates may run through a third protein. Some binding calls cover weakened binding; strength is not graded here.

This assay has as its target Caveolin-1 (human (endogenous in BxPC-3)) (UniProt Q03135). Nature of the assay: co-IP; RIPA lysate (1 mg in the methods, 500 ug in the legend) of BxPC-3, HPAF-II and HPAF-II/dnRhoC cells; pre-incubated with normal isotype control 1 h; overnight with polyclonal or monoclonal anti-cav-1 and Protein A/G agarose at 4 C; 4 washes with ice-cold PBS; immunoblot for RhoC; normal IgG as negative control.

In the case of RhoC GTPase (from UniProt P08134 1-193), the binding result is reported as “binds”.
